Data published in patent publication EP3270157B1, “SCREENING ASSAY FOR SWEETNESS” (Firmenich SA, priority 2016, dated 2018).
Some results were stated once for a whole list of compounds, not compound by compound.

Biological target: T1, T1R2/T1R3 receptor (Homo sapiens, UniProt Q7RTX0+Q8TE23)
T1 sequence (Q8TE23 20-839): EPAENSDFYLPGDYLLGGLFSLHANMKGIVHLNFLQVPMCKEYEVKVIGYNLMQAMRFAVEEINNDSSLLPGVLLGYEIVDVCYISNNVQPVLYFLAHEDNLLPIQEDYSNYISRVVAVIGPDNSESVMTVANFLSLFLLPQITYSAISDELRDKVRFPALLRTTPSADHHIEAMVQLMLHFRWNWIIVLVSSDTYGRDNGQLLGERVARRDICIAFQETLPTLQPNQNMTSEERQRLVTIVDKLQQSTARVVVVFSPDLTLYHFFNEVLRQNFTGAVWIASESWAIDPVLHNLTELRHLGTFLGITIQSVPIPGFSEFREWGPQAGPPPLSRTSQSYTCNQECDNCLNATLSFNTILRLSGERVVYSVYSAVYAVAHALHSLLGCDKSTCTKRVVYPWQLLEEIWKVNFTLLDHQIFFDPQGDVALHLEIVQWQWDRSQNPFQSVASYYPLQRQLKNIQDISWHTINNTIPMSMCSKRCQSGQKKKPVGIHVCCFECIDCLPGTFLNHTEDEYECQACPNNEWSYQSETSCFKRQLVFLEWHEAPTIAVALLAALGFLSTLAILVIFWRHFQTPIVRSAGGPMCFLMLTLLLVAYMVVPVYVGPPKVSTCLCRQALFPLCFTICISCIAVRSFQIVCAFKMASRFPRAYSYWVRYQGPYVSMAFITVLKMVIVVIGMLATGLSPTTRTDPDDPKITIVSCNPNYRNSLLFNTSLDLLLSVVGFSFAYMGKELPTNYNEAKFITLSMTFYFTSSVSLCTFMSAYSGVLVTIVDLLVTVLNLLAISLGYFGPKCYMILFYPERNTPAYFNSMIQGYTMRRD
T1 sequence (Q7RTX0 21-852): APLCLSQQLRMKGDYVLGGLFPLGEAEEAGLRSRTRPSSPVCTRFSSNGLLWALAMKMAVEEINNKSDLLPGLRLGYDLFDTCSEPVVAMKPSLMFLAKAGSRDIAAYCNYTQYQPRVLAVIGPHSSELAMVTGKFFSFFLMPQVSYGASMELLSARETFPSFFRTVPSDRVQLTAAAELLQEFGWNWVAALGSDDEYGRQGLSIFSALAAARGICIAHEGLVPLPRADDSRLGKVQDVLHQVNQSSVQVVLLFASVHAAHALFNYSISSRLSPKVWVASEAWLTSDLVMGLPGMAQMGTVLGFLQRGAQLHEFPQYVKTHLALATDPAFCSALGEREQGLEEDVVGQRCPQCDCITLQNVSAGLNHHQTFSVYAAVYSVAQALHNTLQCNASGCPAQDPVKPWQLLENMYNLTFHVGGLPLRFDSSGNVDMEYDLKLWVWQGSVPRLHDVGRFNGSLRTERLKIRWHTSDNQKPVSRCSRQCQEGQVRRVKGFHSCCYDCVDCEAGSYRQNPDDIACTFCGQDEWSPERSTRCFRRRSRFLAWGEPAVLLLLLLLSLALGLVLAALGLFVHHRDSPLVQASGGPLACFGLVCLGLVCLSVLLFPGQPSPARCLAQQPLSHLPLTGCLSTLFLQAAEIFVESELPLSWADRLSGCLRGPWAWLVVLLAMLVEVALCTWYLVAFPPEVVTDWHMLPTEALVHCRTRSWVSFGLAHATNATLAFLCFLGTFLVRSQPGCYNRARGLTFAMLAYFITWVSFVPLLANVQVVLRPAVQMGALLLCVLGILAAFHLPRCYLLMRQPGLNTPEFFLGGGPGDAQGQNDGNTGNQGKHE
Conditions: Clone #1057 cells, concentration series, Fig. 6

Row | SMILES | beta-arrestin-mediated receptor internalisation
1 | O=C(CO)[C@@H](O)[C@H](O)[C@H](O)CO [fructose] | able to induce beta-arrestin-mediated receptor internalisation in a concentration-dependent manner
2 | OC[C@H]1O[C@H](O[C@]2(CCl)O[C@H](CCl)[C@@H](O)[C@@H]2O)[C@H](O)[C@@H](O)[C@H]1Cl [sucralose] | able to induce beta-arrestin-mediated receptor internalisation in a concentration-dependent manner
3 | OC[C@H]1O[C@@](CO)(O[C@H]2O[C@H](CO)[C@@H](O)[C@H](O)[C@H]2O)[C@@H](O)[C@@H]1O [sucrose] | able to induce beta-arrestin-mediated receptor internalisation in a concentration-dependent manner
